No constants are given. Whether binding was seen depends on the method and setting. In cells and extracts the contact can be indirect. Some results given as binding are weak or reduced against the parent protein; the word gives no strength. For part of these data: Sequences can lack the tags named with a protein.
Experiments:
[1] = molecular target: T1, HA-USP49 (human) (UniProt Q70CQ1); test: co-IP; HEK293T co-transfected with HA-USP49 and Flag-A3G; lysate immunoprecipitated with HA beads, then treated with RNase A (20 ug/mL) for 1 hr; immunoblot
T1 sequence: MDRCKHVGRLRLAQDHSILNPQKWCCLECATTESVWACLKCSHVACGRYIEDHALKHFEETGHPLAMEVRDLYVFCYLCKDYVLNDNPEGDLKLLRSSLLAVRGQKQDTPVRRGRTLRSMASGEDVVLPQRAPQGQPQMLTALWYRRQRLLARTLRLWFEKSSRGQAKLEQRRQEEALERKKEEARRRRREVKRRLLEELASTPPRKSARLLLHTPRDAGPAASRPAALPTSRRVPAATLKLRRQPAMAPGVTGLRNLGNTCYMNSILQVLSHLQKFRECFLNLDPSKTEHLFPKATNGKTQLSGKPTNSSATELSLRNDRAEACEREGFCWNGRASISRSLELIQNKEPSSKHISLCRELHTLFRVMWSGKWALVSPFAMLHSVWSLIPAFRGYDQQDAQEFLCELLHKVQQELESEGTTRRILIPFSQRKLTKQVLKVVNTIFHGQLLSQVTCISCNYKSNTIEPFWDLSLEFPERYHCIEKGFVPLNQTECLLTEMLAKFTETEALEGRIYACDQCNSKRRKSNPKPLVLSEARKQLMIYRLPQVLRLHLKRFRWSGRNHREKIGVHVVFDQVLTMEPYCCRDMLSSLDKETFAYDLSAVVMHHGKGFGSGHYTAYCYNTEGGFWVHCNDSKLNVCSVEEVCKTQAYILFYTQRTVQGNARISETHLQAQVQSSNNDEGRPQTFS

Chains of the proteins cited; added tags and fusions are not shown. Lines headed by an entry give the natural chain unless they say otherwise; changes in a name come on top.
UniProt Q9HC16: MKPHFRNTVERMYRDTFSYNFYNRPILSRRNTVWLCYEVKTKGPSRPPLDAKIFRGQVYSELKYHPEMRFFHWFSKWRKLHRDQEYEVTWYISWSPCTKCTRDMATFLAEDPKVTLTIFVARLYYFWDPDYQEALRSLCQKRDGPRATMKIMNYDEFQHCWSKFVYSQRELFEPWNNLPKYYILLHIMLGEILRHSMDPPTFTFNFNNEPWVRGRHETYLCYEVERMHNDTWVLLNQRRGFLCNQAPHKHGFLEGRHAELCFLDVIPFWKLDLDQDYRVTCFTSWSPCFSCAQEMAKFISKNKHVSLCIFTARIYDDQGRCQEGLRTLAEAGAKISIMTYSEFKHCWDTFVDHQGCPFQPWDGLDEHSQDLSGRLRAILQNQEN

[2] = molecular target: T2, Flag-USP49 (human) (UniProt Q70CQ1); test: co-IP; HEK293T co-transfected with Flag-USP49 and HA-A3G; lysate (150 mM NaCl, 50 mM Tris-HCl pH 7.5, 1 mM EDTA, 1% Triton X-100, 0.5% NP-40) immunoprecipitated with Flag beads, 4 hr at 4°C; immunoblot
T2 sequence: T1 sequence

[3] = molecular target: HA-A3G (in Hela) (human) (UniProt Q9HC16); test: co-IP; Hela cells transfected with HA-A3G (or HA-GFP); lysate immunoprecipitated with HA beads; immunoblot for endogenous USP49

Flag-A3G (from UniProt Q9HC16 1-384)
binding [1]: binds

HA-A3G (in HEK293T) (from UniProt Q9HC16 1-384)
binding [2]: binds

B1: endogenous USP49 (enzyme, UniProt Q70CQ1 1-688)
chain: T1 sequence
binding [3]: binds
